Amino acid sequences for entries named in this document (tags omitted). A change or cut given only in a name is not applied to a line headed by its entry.
UniProt P29692: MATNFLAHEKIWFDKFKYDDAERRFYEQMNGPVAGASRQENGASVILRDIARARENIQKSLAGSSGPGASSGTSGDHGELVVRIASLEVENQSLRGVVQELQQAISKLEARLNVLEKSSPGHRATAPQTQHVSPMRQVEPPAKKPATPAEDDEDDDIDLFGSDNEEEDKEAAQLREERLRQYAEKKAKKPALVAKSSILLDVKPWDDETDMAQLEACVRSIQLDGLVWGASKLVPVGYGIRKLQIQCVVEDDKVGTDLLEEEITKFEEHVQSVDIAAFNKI
UniProt P41162: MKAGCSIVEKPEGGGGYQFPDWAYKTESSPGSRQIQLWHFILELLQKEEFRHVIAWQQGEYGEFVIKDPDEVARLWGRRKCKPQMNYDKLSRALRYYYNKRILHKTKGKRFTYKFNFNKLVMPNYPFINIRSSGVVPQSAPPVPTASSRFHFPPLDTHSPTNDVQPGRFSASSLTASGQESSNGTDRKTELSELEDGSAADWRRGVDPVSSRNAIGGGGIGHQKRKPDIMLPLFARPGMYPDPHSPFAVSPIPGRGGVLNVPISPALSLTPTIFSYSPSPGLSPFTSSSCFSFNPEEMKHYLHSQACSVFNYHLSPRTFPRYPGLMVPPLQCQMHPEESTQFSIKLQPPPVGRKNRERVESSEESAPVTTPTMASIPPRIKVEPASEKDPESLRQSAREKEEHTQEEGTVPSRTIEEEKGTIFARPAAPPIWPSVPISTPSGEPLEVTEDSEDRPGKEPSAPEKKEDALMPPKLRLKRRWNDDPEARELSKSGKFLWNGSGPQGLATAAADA
UniProt Q641Q2, whole entry: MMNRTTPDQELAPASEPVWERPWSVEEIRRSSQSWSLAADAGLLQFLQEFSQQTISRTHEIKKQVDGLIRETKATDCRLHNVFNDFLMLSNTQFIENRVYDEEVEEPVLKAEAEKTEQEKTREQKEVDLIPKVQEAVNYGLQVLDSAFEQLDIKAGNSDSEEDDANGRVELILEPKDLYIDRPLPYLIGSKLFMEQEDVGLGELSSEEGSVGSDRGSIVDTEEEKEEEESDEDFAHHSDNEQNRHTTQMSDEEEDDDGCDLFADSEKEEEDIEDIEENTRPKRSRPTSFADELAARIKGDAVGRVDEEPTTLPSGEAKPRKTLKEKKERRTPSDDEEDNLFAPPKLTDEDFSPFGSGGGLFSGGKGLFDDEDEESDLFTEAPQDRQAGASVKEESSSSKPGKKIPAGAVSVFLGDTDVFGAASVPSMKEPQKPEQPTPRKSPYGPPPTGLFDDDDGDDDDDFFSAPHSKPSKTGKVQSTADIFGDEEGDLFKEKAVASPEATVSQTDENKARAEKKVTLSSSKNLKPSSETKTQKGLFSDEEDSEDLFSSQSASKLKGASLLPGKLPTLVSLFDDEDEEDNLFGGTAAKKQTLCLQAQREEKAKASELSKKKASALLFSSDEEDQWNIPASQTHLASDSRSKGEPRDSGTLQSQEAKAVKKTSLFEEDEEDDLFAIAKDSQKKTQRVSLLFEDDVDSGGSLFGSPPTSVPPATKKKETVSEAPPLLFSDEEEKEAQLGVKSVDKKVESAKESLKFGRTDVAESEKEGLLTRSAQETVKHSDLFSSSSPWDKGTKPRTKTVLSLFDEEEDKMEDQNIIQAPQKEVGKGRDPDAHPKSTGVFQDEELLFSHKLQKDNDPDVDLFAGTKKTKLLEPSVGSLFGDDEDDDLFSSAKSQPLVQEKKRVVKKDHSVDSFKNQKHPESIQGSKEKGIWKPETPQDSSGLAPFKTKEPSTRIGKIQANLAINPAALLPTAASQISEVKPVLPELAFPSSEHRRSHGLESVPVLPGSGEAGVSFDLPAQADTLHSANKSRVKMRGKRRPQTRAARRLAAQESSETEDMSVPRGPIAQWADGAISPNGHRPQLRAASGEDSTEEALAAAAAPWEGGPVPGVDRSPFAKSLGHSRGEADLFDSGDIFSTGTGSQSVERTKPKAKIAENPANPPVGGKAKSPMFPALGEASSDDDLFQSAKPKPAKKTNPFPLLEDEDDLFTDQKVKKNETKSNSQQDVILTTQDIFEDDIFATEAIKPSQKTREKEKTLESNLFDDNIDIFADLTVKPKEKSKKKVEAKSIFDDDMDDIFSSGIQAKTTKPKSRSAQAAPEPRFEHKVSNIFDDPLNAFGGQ
UniProt Q13868, whole entry: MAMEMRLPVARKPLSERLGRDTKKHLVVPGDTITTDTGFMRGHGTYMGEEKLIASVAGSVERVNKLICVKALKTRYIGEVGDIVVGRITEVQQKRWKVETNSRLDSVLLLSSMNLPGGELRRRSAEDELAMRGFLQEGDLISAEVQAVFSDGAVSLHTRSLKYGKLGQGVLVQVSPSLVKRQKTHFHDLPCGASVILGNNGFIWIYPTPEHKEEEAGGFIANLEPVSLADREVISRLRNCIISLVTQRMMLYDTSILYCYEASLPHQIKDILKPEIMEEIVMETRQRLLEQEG
UniProt Q6P1L5: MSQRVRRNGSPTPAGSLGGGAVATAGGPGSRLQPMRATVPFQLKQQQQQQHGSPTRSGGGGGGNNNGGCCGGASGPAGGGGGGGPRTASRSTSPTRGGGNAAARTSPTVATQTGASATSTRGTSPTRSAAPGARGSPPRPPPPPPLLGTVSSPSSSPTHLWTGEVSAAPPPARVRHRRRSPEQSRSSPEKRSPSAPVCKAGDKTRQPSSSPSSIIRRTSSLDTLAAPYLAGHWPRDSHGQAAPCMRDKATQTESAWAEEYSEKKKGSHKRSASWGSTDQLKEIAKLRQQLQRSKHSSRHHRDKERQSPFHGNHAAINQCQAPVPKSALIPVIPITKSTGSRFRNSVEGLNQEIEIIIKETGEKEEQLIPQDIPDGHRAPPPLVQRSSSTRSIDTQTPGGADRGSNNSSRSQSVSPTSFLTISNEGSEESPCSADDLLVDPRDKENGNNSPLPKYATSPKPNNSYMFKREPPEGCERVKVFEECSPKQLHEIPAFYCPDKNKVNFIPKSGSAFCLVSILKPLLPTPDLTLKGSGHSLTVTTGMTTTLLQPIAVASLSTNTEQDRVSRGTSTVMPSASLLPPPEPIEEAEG
UniProt Q9H8V3: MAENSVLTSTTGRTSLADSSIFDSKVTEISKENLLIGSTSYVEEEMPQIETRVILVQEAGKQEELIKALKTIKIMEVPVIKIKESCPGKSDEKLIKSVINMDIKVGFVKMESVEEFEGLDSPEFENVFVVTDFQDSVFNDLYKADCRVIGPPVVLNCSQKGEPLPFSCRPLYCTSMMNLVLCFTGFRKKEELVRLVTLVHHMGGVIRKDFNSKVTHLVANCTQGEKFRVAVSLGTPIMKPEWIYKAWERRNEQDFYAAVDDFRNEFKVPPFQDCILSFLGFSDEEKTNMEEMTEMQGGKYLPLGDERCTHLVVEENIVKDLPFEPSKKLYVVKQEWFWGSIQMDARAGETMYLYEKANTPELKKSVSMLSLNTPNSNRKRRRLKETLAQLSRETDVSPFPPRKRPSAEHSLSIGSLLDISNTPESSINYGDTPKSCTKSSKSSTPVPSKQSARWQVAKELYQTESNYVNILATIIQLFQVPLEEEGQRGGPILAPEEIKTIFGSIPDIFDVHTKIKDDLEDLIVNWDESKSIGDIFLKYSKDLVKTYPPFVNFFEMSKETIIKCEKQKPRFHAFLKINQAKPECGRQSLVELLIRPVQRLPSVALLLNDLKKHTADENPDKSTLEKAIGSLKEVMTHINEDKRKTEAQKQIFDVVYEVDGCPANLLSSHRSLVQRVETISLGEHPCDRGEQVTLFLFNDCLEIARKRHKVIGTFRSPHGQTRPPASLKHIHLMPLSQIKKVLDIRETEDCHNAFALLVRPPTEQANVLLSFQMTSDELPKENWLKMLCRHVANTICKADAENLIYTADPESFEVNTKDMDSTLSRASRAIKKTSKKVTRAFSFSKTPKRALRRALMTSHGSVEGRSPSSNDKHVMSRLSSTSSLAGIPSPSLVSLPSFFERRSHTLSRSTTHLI
UniProt Q9Y6I3: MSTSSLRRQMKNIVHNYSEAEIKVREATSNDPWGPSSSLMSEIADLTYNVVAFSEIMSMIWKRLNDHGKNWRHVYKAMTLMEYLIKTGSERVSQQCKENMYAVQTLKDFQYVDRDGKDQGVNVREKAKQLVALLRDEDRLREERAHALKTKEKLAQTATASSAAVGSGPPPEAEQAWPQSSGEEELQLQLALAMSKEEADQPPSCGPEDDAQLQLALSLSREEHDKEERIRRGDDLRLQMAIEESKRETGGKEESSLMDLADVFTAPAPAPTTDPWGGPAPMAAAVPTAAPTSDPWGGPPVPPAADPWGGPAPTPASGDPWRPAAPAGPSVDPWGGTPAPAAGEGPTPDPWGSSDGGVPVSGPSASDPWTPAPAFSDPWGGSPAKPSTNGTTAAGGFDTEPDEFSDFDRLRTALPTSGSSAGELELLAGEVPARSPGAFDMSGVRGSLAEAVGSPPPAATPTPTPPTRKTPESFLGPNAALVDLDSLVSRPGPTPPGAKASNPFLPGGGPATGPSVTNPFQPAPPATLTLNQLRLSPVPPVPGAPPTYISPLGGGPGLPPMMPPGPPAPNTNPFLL
UniProt Q96EK7: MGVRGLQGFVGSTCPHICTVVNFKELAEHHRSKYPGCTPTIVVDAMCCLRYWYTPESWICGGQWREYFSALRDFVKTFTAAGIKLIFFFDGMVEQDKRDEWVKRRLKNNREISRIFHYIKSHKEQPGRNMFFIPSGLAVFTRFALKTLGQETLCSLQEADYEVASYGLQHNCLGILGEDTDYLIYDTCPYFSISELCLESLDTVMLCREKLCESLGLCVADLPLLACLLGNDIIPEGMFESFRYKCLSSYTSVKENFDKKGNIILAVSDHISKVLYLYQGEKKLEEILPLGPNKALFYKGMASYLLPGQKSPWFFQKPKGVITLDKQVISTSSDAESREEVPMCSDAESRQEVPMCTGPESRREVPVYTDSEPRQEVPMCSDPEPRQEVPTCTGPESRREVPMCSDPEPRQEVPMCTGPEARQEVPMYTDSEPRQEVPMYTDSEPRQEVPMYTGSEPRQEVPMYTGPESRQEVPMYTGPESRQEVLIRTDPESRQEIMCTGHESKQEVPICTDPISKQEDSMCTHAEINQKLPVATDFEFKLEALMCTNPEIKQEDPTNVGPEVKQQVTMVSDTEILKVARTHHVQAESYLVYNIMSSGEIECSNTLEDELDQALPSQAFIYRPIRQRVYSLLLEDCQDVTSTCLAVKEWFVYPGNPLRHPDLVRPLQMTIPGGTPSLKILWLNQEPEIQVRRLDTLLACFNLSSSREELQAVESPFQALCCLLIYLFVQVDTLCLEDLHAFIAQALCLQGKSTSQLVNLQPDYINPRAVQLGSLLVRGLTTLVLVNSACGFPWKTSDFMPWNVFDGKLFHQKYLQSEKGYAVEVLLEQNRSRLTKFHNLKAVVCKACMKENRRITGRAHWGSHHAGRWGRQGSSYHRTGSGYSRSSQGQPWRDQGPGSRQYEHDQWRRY
UniProt P07099: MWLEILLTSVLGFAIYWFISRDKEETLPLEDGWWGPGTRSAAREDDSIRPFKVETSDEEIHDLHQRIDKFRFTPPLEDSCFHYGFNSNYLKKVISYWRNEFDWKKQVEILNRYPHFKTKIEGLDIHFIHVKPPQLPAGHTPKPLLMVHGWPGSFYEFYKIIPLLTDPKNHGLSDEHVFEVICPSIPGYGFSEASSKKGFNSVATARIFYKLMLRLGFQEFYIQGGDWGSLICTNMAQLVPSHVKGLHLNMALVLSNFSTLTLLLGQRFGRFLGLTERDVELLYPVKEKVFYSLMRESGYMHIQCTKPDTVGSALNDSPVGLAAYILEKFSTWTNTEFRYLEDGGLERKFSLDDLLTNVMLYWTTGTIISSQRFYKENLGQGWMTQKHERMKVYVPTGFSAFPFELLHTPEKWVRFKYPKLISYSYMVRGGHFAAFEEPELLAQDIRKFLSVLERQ
UniProt Q92556, whole entry: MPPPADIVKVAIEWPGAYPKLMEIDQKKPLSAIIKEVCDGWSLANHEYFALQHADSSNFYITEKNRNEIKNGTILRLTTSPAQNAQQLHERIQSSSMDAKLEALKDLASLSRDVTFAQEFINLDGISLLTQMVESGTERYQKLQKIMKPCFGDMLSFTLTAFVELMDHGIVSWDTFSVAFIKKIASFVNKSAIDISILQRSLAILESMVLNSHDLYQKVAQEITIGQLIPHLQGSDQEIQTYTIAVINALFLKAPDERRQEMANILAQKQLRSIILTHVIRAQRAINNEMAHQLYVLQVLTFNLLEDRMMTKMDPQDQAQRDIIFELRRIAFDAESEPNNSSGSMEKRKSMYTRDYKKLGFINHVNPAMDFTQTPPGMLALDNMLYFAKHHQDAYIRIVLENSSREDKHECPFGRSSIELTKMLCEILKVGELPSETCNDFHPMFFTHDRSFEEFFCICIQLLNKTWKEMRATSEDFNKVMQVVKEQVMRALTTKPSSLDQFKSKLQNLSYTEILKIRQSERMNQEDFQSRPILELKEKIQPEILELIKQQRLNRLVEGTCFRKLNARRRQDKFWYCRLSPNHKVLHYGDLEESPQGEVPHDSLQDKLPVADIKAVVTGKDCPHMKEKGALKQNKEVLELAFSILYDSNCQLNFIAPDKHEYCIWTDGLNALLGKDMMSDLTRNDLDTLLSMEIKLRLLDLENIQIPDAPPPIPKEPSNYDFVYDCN

Some of the results follow.
The targets below were run with COc1ccc(Cn2ccc3cc(C)c(C(=O)NO)cc32)cc1 (assay: dose-dependent thermal stabilisation call (2D-TPP, DLPTP, 10% FDR) (binary (1 = stabilised)); higher = stabilised by the compound). Conditions: system: HL-60 intact cells; concentration range 0.04-10 µM.
Experimental: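 2D thermal proteome profiling in intact HL-60 cells treated with BRD-3811 (0, 0.04, 0.29, 2, 10 uM) for 90 min at 37 C, then heated 3 min at one of 12 temperatures (42-63.9 C). Soluble protein was quantified by TMT10 MS. The value is the DLPTP call of the paper: dose-dependent thermal stabilisation over all temperatures at 10% FDR (F-test of a dose-response against a flat model); one experiment, one call per tested protein.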
In the case of DRG1 (UniProt Q9Y295), the “dose-dependent thermal stabilisation call” value is reported as inactive: 0.
For EHD4 (UniProt Q9H223), the “dose-dependent thermal stabilisation call” value was inactive: 0.
In the case of EEF1D (UniProt P29692), the “dose-dependent thermal stabilisation call” value is reported as inactive: 0.
In the case of EXOSC4 (UniProt Q9NPD3), the “dose-dependent thermal stabilisation call” value is reported as inactive: 0.
With ETV3 (UniProt P41162) the “dose-dependent thermal stabilisation call” value was inactive: 0.
In the case of ENY2 (UniProt Q9NPA8), the “dose-dependent thermal stabilisation call” value is reported as inactive: 0.
In the case of FAM134A (UniProt Q8NC44), the “dose-dependent thermal stabilisation call” value is reported as inactive: 0.
For FAM162A (UniProt Q96A26), the “dose-dependent thermal stabilisation call” value was inactive: 0.
DYNC1I2 (UniProt Q13409) was tested, and the “dose-dependent thermal stabilisation call” value was inactive: 0.
With ENTPD6 (UniProt O75354) the “dose-dependent thermal stabilisation call” value was inactive: 0.
EDC3 (UniProt Q96F86) was tested, and the “dose-dependent thermal stabilisation call” value was inactive: 0.
For FAM21B (UniProt Q641Q2), the “dose-dependent thermal stabilisation call” value was inactive: 0.
For EIF2C2 (UniProt Q9UKV8), the “dose-dependent thermal stabilisation call” value was inactive: 0.
For FAM3C (UniProt Q92520), the “dose-dependent thermal stabilisation call” value was inactive: 0.
With EIF4ENIF1 (UniProt Q9NRA8) the “dose-dependent thermal stabilisation call” value was inactive: 0.
For EXOSC2 (UniProt Q13868), the “dose-dependent thermal stabilisation call” value was inactive: 0.
With EIF2B2 (UniProt P49770) the “dose-dependent thermal stabilisation call” value was inactive: 0.
FAM117B (UniProt Q6P1L5) was tested, and the “dose-dependent thermal stabilisation call” value was inactive: 0.
ECT2 (UniProt Q9H8V3) was tested, and the “dose-dependent thermal stabilisation call” value was inactive: 0.
With EPN1 (UniProt Q9Y6I3) the “dose-dependent thermal stabilisation call” value was inactive: 0.
For FAM120B (UniProt Q96EK7), the “dose-dependent thermal stabilisation call” value was inactive: 0.
For DVL2 (UniProt O14641), the “dose-dependent thermal stabilisation call” value was inactive: 0.
EPHX1 (UniProt P07099) was tested, and the “dose-dependent thermal stabilisation call” value was active: 1.
ELMO1 (UniProt Q92556) was tested, and the “dose-dependent thermal stabilisation call” value was inactive: 0.
For EARS2 (UniProt Q5JPH6), the “dose-dependent thermal stabilisation call” value was inactive: 0.
DUS2L (UniProt Q9NX74) was tested, and the “dose-dependent thermal stabilisation call” value was inactive: 0.
In the case of ERP29 (UniProt P30040), the “dose-dependent thermal stabilisation call” value is reported as inactive: 0.
With FAM122B (UniProt Q7Z309) the “dose-dependent thermal stabilisation call” value was inactive: 0.
E2F6 (UniProt O75461) was tested, and the “dose-dependent thermal stabilisation call” value was inactive: 0.
In the case of EXTL2 (UniProt Q9UBQ6), the “dose-dependent thermal stabilisation call” value is reported as inactive: 0.
For DUSP12 (UniProt Q9UNI6), the “dose-dependent thermal stabilisation call” value was inactive: 0.
With DYNLRB1 (UniProt Q9NP97) the “dose-dependent thermal stabilisation call” value was inactive: 0.
In the case of EXO1 (UniProt Q9UQ84), the “dose-dependent thermal stabilisation call” value is reported as inactive: 0.
For FADS1 (UniProt O60427), the “dose-dependent thermal stabilisation call” value was inactive: 0.
With ESPL1 (UniProt Q14674) the “dose-dependent thermal stabilisation call” value was inactive: 0.
EDF1 (UniProt O60869) was tested, and the “dose-dependent thermal stabilisation call” value was inactive: 0.

— the supplement of paper PMC7666118
